PubChem BioAssay AID1508597 – Cure First, 2020
Shown is one part, drawn at random, of about 2,100 reagents. 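Calls flag viability under 80% in either arm, not effects specific to rucaparib; the reference for percent is not stated.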 Not given: the 100% reference.

Test: 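Genes whose silencing sensitises or protects ovarian cancer cells against rucaparib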 (primary screen)
Cells: human ovarian carcinoma lines grown from tumours: OCI-P5x (papillary serous) and OCI-C5x (clear cell)
Reagents: siRNA pool against human genes, 1.25 pmol siRNA per well
Time to read-out: 72 h or 96 h, depending on the cell culture
Treatment: rucaparib 20 µM (about IC30) or vehicle, present until read-out
Detection: 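Luminescent ATP-based viability assay read 72 or 96 h after transfection, depending on culture, given as normalised percent viability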
Scale: viability, normalised: higher = more viable cells remaining
Active means: 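Active when normalised viability falls below 80 percent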
Calls: active = viability under 80%; inactive = viability 80% or more

HSPA5 (heat shock protein family A (Hsp70) member 5), rucaparib or vehicle Rucaparib, cell line OCI-C5x (clear cell), technical replicate 1
- viability, normalised (%): 23.6
- Outcome: active

HSPA5 (heat shock protein family A (Hsp70) member 5), rucaparib or vehicle Rucaparib, cell line OCI-C5x (clear cell), technical replicate 2
- viability, normalised (%): 41.1
- Outcome: active

HSPA5 (heat shock protein family A (Hsp70) member 5), rucaparib or vehicle Rucaparib, cell line OCI-C5x (clear cell), technical replicate 3
- viability, normalised (%): 42.2
- Outcome: active

HSPA5 (heat shock protein family A (Hsp70) member 5), rucaparib or vehicle Rucaparib, cell line OCI-P5x (serous), technical replicate 1
- viability, normalised (%): 71.7
- Outcome: active

HSPA5 (heat shock protein family A (Hsp70) member 5), rucaparib or vehicle Rucaparib, cell line OCI-P5x (serous), technical replicate 2
- viability, normalised (%): 85.4
- Outcome: inactive

HSPA5 (heat shock protein family A (Hsp70) member 5), rucaparib or vehicle Rucaparib, cell line OCI-P5x (serous), technical replicate 3
- viability, normalised (%): 49.6
- Outcome: active

HSPA5 (heat shock protein family A (Hsp70) member 5), rucaparib or vehicle Vehicle, cell line OCI-C5x (clear cell), technical replicate 1
- viability, normalised (%): 27.1
- Outcome: active

HSPA5 (heat shock protein family A (Hsp70) member 5), rucaparib or vehicle Vehicle, cell line OCI-C5x (clear cell), technical replicate 2
- viability, normalised (%): 31.8
- Outcome: active

HSPA5 (heat shock protein family A (Hsp70) member 5), rucaparib or vehicle Vehicle, cell line OCI-C5x (clear cell), technical replicate 3
- viability, normalised (%): 21.1
- Outcome: active

HSPA5 (heat shock protein family A (Hsp70) member 5), rucaparib or vehicle Vehicle, cell line OCI-P5x (serous), technical replicate 1
- viability, normalised (%): 70.2
- Outcome: active

HSPA5 (heat shock protein family A (Hsp70) member 5), rucaparib or vehicle Vehicle, cell line OCI-P5x (serous), technical replicate 2
- viability, normalised (%): 65.6
- Outcome: active

HSPA5 (heat shock protein family A (Hsp70) member 5), rucaparib or vehicle Vehicle, cell line OCI-P5x (serous), technical replicate 3
- viability, normalised (%): 74
- Outcome: active

Reagents listed above with an active call (11):
HSPA5 (heat shock protein family A (Hsp70) member 5), rucaparib or vehicle Rucaparib, cell line OCI-C5x (clear cell), technical replicate 1
- viability, normalised (%): 23.6
- Outcome: active

HSPA5 (heat shock protein family A (Hsp70) member 5), rucaparib or vehicle Rucaparib, cell line OCI-C5x (clear cell), technical replicate 2
- viability, normalised (%): 41.1
- Outcome: active

HSPA5 (heat shock protein family A (Hsp70) member 5), rucaparib or vehicle Rucaparib, cell line OCI-C5x (clear cell), technical replicate 3
- viability, normalised (%): 42.2
- Outcome: active

HSPA5 (heat shock protein family A (Hsp70) member 5), rucaparib or vehicle Rucaparib, cell line OCI-P5x (serous), technical replicate 1
- viability, normalised (%): 71.7
- Outcome: active

HSPA5 (heat shock protein family A (Hsp70) member 5), rucaparib or vehicle Rucaparib, cell line OCI-P5x (serous), technical replicate 3
- viability, normalised (%): 49.6
- Outcome: active

HSPA5 (heat shock protein family A (Hsp70) member 5), rucaparib or vehicle Vehicle, cell line OCI-C5x (clear cell), technical replicate 1
- viability, normalised (%): 27.1
- Outcome: active

HSPA5 (heat shock protein family A (Hsp70) member 5), rucaparib or vehicle Vehicle, cell line OCI-C5x (clear cell), technical replicate 2
- viability, normalised (%): 31.8
- Outcome: active

HSPA5 (heat shock protein family A (Hsp70) member 5), rucaparib or vehicle Vehicle, cell line OCI-C5x (clear cell), technical replicate 3
- viability, normalised (%): 21.1
- Outcome: active

HSPA5 (heat shock protein family A (Hsp70) member 5), rucaparib or vehicle Vehicle, cell line OCI-P5x (serous), technical replicate 1
- viability, normalised (%): 70.2
- Outcome: active

HSPA5 (heat shock protein family A (Hsp70) member 5), rucaparib or vehicle Vehicle, cell line OCI-P5x (serous), technical replicate 2
- viability, normalised (%): 65.6
- Outcome: active

HSPA5 (heat shock protein family A (Hsp70) member 5), rucaparib or vehicle Vehicle, cell line OCI-P5x (serous), technical replicate 3
- viability, normalised (%): 74
- Outcome: active

Further records follow:
NAP1L5 (nucleosome assembly protein 1 like 5), rucaparib or vehicle Rucaparib, cell line OCI-C5x (clear cell), technical replicate 1
- viability, normalised (%): 45.1
- Outcome: active

NAP1L5 (nucleosome assembly protein 1 like 5), rucaparib or vehicle Rucaparib, cell line OCI-C5x (clear cell), technical replicate 2
- viability, normalised (%): 57.1
- Outcome: active

NAP1L5 (nucleosome assembly protein 1 like 5), rucaparib or vehicle Rucaparib, cell line OCI-C5x (clear cell), technical replicate 3
- viability, normalised (%): 50.8
- Outcome: active

NAP1L5 (nucleosome assembly protein 1 like 5), rucaparib or vehicle Rucaparib, cell line OCI-P5x (serous), technical replicate 1
- viability, normalised (%): 49.2
- Outcome: active

NAP1L5 (nucleosome assembly protein 1 like 5), rucaparib or vehicle Rucaparib, cell line OCI-P5x (serous), technical replicate 2
- viability, normalised (%): 50.2
- Outcome: active

NAP1L5 (nucleosome assembly protein 1 like 5), rucaparib or vehicle Rucaparib, cell line OCI-P5x (serous), technical replicate 3
- viability, normalised (%): 55.1
- Outcome: active

NAP1L5 (nucleosome assembly protein 1 like 5), rucaparib or vehicle Vehicle, cell line OCI-C5x (clear cell), technical replicate 1
- viability, normalised (%): 29.4
- Outcome: active

NAP1L5 (nucleosome assembly protein 1 like 5), rucaparib or vehicle Vehicle, cell line OCI-C5x (clear cell), technical replicate 2
- viability, normalised (%): 34
- Outcome: active

NAP1L5 (nucleosome assembly protein 1 like 5), rucaparib or vehicle Vehicle, cell line OCI-C5x (clear cell), technical replicate 3
- viability, normalised (%): 40.7
- Outcome: active

NAP1L5 (nucleosome assembly protein 1 like 5), rucaparib or vehicle Vehicle, cell line OCI-P5x (serous), technical replicate 1
- viability, normalised (%): 49.7
- Outcome: active

NAP1L5 (nucleosome assembly protein 1 like 5), rucaparib or vehicle Vehicle, cell line OCI-P5x (serous), technical replicate 2
- viability, normalised (%): 45.9
- Outcome: active

NAP1L5 (nucleosome assembly protein 1 like 5), rucaparib or vehicle Vehicle, cell line OCI-P5x (serous), technical replicate 3
- viability, normalised (%): 83.8
- Outcome: inactive

SPAG11B (sperm associated antigen 11B), rucaparib or vehicle Rucaparib, cell line OCI-C5x (clear cell), technical replicate 1
- viability, normalised (%): 53.2
- Outcome: active

SPAG11B (sperm associated antigen 11B), rucaparib or vehicle Rucaparib, cell line OCI-C5x (clear cell), technical replicate 2
- viability, normalised (%): 44.9
- Outcome: active

SPAG11B (sperm associated antigen 11B), rucaparib or vehicle Rucaparib, cell line OCI-C5x (clear cell), technical replicate 3
- viability, normalised (%): 62
- Outcome: active

SPAG11B (sperm associated antigen 11B), rucaparib or vehicle Rucaparib, cell line OCI-P5x (serous), technical replicate 1
- viability, normalised (%): 75
- Outcome: active

SPAG11B (sperm associated antigen 11B), rucaparib or vehicle Rucaparib, cell line OCI-P5x (serous), technical replicate 2
- viability, normalised (%): 74.9
- Outcome: active

SPAG11B (sperm associated antigen 11B), rucaparib or vehicle Rucaparib, cell line OCI-P5x (serous), technical replicate 3
- viability, normalised (%): 52.7
- Outcome: active

SPAG11B (sperm associated antigen 11B), rucaparib or vehicle Vehicle, cell line OCI-C5x (clear cell), technical replicate 1
- viability, normalised (%): 63
- Outcome: active

SPAG11B (sperm associated antigen 11B), rucaparib or vehicle Vehicle, cell line OCI-C5x (clear cell), technical replicate 2
- viability, normalised (%): 49.5
- Outcome: active

SPAG11B (sperm associated antigen 11B), rucaparib or vehicle Vehicle, cell line OCI-C5x (clear cell), technical replicate 3
- viability, normalised (%): 54.2
- Outcome: active

SPAG11B (sperm associated antigen 11B), rucaparib or vehicle Vehicle, cell line OCI-P5x (serous), technical replicate 1
- viability, normalised (%): 70.9
- Outcome: active

SPAG11B (sperm associated antigen 11B), rucaparib or vehicle Vehicle, cell line OCI-P5x (serous), technical replicate 2
- viability, normalised (%): 55.8
- Outcome: active

SPAG11B (sperm associated antigen 11B), rucaparib or vehicle Vehicle, cell line OCI-P5x (serous), technical replicate 3
- viability, normalised (%): 48.1
- Outcome: active
